Measurements from US20250297152A1, “FLUORINATED SUBSTITUTED OLEFIN REFRIGERANTS AND METHODS OF COOLING ELECTRONICS” (Honeywell International Inc., priority 2024, published 2025).

Experiment: ODP

SMILES | ODP (Table 3) | ODP (Table E1)
F/C=C\C(F)(C(F)(F)F)C(F)(F)C(F)(F)F (stereo not drawn) [cis-secBuFO, cis-1,3,4,4,5,5,5-heptafluoro-3-(trifluoromethyl)pent-1-ene] | 0 | 0
F/C=C\C(C(F)(F)F)(C(F)(F)F)C(F)(F)F [cis-tBuFO, cis-1,4,4,4-tetrafluoro-3,3-bis(trifluoromethyl)but-1-ene] | 0 | 0
F/C=C/C(F)(C(F)(F)F)C(F)(F)C(F)(F)F (stereo not drawn) [trans-secBuFO, trans-1,3,4,4,5,5,5-heptafluoro-3-(trifluoromethyl)pent-1-ene] | 0 | 0
F/C=C/C(C(F)(F)F)(C(F)(F)F)C(F)(F)F [trans-tBuFO, trans-1,4,4,4-tetrafluoro-3,3-bis(trifluoromethyl)but-1-ene] | 0 | 0
